Measured values: paper PMC3397464, “Woodylides A–C, New Cytotoxic Linear Polyketides from the South China Sea Sponge Plakortis simplex” (Marine Drugs, 2012)
Values after ≈ are worked out from the molar mass of the structure shown.

System: Candida albicans (Y0109)
Assay: Antifungal evaluation, MIC (NCCLS broth dilution)
Type: cell-based
Conditions: 46 h at 35 °C, range 1.25–640 μg/mL
Method: The three new polyketides 1–3 were evaluated for antifungal activity against Cryptococcus neoformans (ATCC 90113), Candida albicans (Y0109), Trichophyton rubrum (Cmccftla) and Microsporum gypseum (Cmccfmza) (Table 2), for in vitro cytotoxic activity against human cancer cell lines, HCT-116 (colon cancer), A549 (lung carcinoma), HeLa (cervical cancer), QGY-7703 (hepatocarcinoma), and MDA231 (breast adenocarcinoma) (Table 3), and protein tyrosine phosphatase 1B (PTP1B) inhibitory activity (Table 3). […] Cytotoxicity of compound 3 against A549, HeLa, QGY-7703, and MDA231 cell lines was weaker when compared to that of 1. […] The PTP1B inhibitors are recognized as potential therapeutic agents for the treatment of type II diabetes and obesity.
Antifungal IC50 values of woodylides A–C against C. neoformans were calculated as described by Ikhlas A. Khan et al.. Amphotericin B was used as the positive control. Minimal Inhibition Concentration (MIC) values of woodylides A–C were determined against three indicators (C. albicans, T. rubrum, and M. gypseum), following the […] (NCCLS) methods. Fluconazole was used as the positive control. […] The IC50 values were calculated by using the fit model 201 of XLfit 4.2 software.

Work on `OC(Cn1cncn1)(Cn1cncn1)c1ccc(F)cc1F` [Fluconazole, reference compound] yielded an MIC of 0.25 mg/L (≈ 0.816 µM).
